Laboratory results taken from PMC8126888 (RSC Medicinal Chemistry, 2020).

System: primary peritoneal mouse macrophages (PMM)
Conditions: selectivity index PMM vs L. infantum

Q: How did the “SI (vs PMM)” value turn out when `O=[N+]([O-])c1ccc(Cl)cc1S(=O)(=O)N(Cc1ccccc1)Cc1ccc(F)cc1` [DNDI0003389123] was run?
A: 1

Q: Which “SI (vs PMM)” value does the source give for `N#Cc1ccc(O)c(S(=O)(=O)N(Cc2ccc(F)cc2)Cc2ccc(F)cc2)c1` [DNDI0003389125] here?
A: 1

Q: With `COc1ccc(C(=O)N2CCOCC2)cc1S(=O)(=O)N(C)Cc1ccc(F)cc1` [DNDI0003389126] as the compound, how does the “SI (vs PMM)” value read?
A: 1

Q: With `COc1ccc(C(=O)N2CCOCC2)cc1S(=O)(=O)N(Cc1ccc(F)cc1)CC(C)C` [DNDI0003389127] as the compound, how does the “SI (vs PMM)” value read?
A: 9

Q: `COc1ccc(C(=O)N2CCOCC2)cc1S(=O)(=O)N(Cc1ccc(F)cc1)Cc1ccccc1Cl` [DNDI0003389128] was tested. Which “SI (vs PMM)” value did it give?
A: 46

Q: `COc1ccc(OC)c(S(=O)(=O)N(Cc2ccc(F)cc2)Cc2ccnn2C)c1` [DNDI0003389129] was tested. Which “SI (vs PMM)” value did it give?
A: 9

Q: For `COc1ccc(Cl)cc1S(=O)(=O)N(Cc1ccccc1)CC(O)c1ccc(F)cc1` (stereo not shown) [DNDI0003389316], which “SI (vs PMM)” value is on record?
A: 5

Q: With `COc1ccccc1S(=O)(=O)N(Cc1ccccc1)CC(O)c1ccc(F)cc1` (stereo not shown) [DNDI0003389317] as the compound, how does the “SI (vs PMM)” value read?
A: 6

Q: `CNCCOc1ccc(F)cc1S(=O)(=O)N(Cc1ccc(F)cc1)Cc1ccc(F)cc1` [DNDI0003389318] was tested. Which “SI (vs PMM)” value did it give?
A: 3

Q: For `COc1ccc(OC)c(S(=O)(=O)N(Cc2ccc(F)cc2)Cc2cnc(OC)nc2OC)c1` [DNDI0003389321], which “SI (vs PMM)” value is on record?
A: 1

Q: For `N#Cc1ccccc1S(=O)(=O)N(Cc1ccccc1)Cc1ccccc1` [DNDI0003389641], which “SI (vs PMM)” value is on record?
A: 6

Q: Which “SI (vs PMM)” value does the source give for `CS(=O)(=O)c1ccccc1S(=O)(=O)N(Cc1ccccc1)Cc1ccccc1` [DNDI0003389642] here?
A: 2

Q: For `COc1ccc(S(=O)(=O)N2CCOCC2)cc1C(=O)N(Cc1ccc(F)cc1)Cc1ccc(F)cc1` [DNDI0003389643], which “SI (vs PMM)” value is on record?
A: 4

Q: Which “SI (vs PMM)” value does the source give for `COc1ccc(C(=O)N2CCOCC2)cc1S(=O)(=O)N(Cc1ccc(F)cc1)Cc1ccc(C(F)(F)F)nc1` [DNDI0003389644] here?
A: 37

Q: How did the “SI (vs PMM)” value turn out when `COc1ccc(N2CCN(C)CC2)cc1S(=O)(=O)N(Cc1ccc(F)cc1)Cc1ccc(F)cc1` [DNDI0003389645] was run?
A: 20

Q: With `O=S(=O)(c1ccccn1)N(Cc1ccccc1)Cc1ccccc1` [DNDI0003389646] as the compound, how does the “SI (vs PMM)” value read?
A: 4

Q: For `O=S(=O)(c1cc(N2CCOCC2)ccc1OC(F)F)N(Cc1ccc(F)cc1)Cc1ccc(F)cc1` [DNDI0003389647], which “SI (vs PMM)” value is on record?
A: 91

Q: How did the “SI (vs PMM)” value turn out when `COc1ccc(CN(Cc2ccc(F)cc2)S(=O)(=O)c2cc(F)ccc2OCC[N+](C)(C)CC(=O)O)cc1` [DNDI0003389931] was run?
A: 1

Q: Which “SI (vs PMM)” value does the source give for `COc1ccc(Cl)cc1S(=O)(=O)N(Cc1ccccc1)CC(N)c1ccc(F)cc1` (stereo not shown) [DNDI0003389932] here?
A: 5

Q: How did the “SI (vs PMM)” value turn out when `COc1ccc(Cl)cc1S(=O)(=O)N(Cc1ccccc1)C(CO)CO` [DNDI0003389933] was run?
A: 1

Q: With `CCN(Cc1ccc(F)cc1)S(=O)(=O)c1cc(C(=O)N2CCOCC2)ccc1OC` [DNDI0003392124] as the compound, how does the “SI (vs PMM)” value read?
A: 3

Q: For `COCCN(Cc1ccc(F)cc1)S(=O)(=O)c1cc(C(=O)N2CCOCC2)ccc1OC` [DNDI0003392125], which “SI (vs PMM)” value is on record?
A: 3

Q: For `COCCN(Cc1ccccc1)S(=O)(=O)c1cc(C(=O)N2CCOCC2)ccc1OC` [DNDI0003392126], which “SI (vs PMM)” value is on record?
A: 1

Q: `COCCN(Cc1ccccc1)S(=O)(=O)c1cc(C(=O)N2CCNCC2)ccc1OC` [DNDI0003392127] was tested. Which “SI (vs PMM)” value did it give?
A: 2

Q: `CNC(=O)c1ccc(OC)c(S(=O)(=O)N(CCOC)Cc2ccccc2)c1` [DNDI0003392128] was tested. Which “SI (vs PMM)” value did it give?
A: 2

Q: How did the “SI (vs PMM)” value turn out when `COCCN(Cc1ccccc1)S(=O)(=O)c1cc(C(=O)NC2COC2)ccc1OC` [DNDI0003392129] was run?
A: 4

Q: How did the “SI (vs PMM)” value turn out when `COCCN(Cc1ccccc1)S(=O)(=O)c1ccccc1OC(F)(F)F` [DNDI0003392130] was run?
A: 8

Q: For `NS(=O)(=O)c1cc2c(cc1Cl)NCN(Cc1ccccc1)S2(=O)=O` [DNDI0003392143], which “SI (vs PMM)” value is on record?
A: 1

Q: For `O=S(=O)(NCc1ccccc1)c1cc2c(cc1Cl)NCN(Cc1ccccc1)S2(=O)=O` [DNDI0003392144], which “SI (vs PMM)” value is on record?
A: 1

Q: With `Nc1cc(Cl)c(S(N)(=O)=O)cc1S(=O)(=O)N(Cc1ccccc1)Cc1ccccc1` [DNDI0003392145] as the compound, how does the “SI (vs PMM)” value read?
A: 1

Q: Which “SI (vs PMM)” value does the source give for `COc1ccc(Cl)cc1S(=O)(=O)N(Cc1ccccc1)C1COC(=O)OC1` [DNDI0003392146] here?
A: 4
